According to publication PMC10848721:
Results are given in words; binding and its absence hold for the method and conditions named. Binding seen in cells or lysates may run through a third protein. Binding can be weak; no strength is given.

By UniProt entry, the sequences of proteins in these tests, tags left out. Where a name states a change or a piece, a line headed by the entry shows the natural chain unless it says otherwise.
UniProt Q86T03: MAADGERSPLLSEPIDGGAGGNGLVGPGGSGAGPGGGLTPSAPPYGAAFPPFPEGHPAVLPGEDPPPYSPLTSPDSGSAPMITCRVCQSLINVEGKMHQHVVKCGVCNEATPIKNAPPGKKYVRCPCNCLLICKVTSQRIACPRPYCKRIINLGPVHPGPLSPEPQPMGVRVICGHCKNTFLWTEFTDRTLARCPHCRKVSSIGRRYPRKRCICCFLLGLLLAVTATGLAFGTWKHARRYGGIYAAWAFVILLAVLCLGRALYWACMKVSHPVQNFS

Assays:
Assay in all cases: co-IP; HaloLink Resin IP of Halo-TMEM55B (full-length, truncated or point mutants) from lysates of transiently transfected HEK293 cells, 1 to 2 hours; washed with 50 mM tris-HCl pH 7.5, 150 mM NaCl; quantitative immunoblot
TMEM55B A117S = TMEM55B A117S (UniProt Q86T03)
TMEM55B L137A = TMEM55B L137A (UniProt Q86T03)
TMEM55B V108T = TMEM55B V108T (UniProt Q86T03)

- binding (TMEM55B A117S): binds
- binding (TMEM55B L137A): binds
- binding (TMEM55B V108T): binds
B1: RILPL1 (found with overexpressed TMEM55B or TMEM55A) (protein, UniProt Q5EBL4 1-403)
chain: MEEERGSALAAESALEKNVAELTVMDVYDIASLVGHEFERVIDQHGCEAIARLMPKVVRVLEILEVLVSRHHVAPELDELRLELDRLRLERMDRIEKERKHQKELELVEDVWRGEAQDLLSQIAQLQEENKQLMTNLSHKDVNFSEEEFQKHEGMSERERQVMKKLKEVVDKQRDEIRAKDRELGLKNEDVEALQQQQTRLMKINHDLRHRVTVVEAQGKALIEQKVELEADLQTKEQEMGSLRAELGKLRERLQGEHSQNGEEEPETEPVGEESISDAEKVAMDLKDPNRPRFTLQELRDVLHERNELKSKVFLLQEELAYYKSEEMEEENRIPQPPPIAHPRTSPQPESGIKRLFSFFSRDKKRLANTQRNVHIQESFGQWANTHRDDGYTEQGQEALQHL
